For experiment [1], the target named is T1, 5-carboxyfluorescein N-terminus labelled GLSKG[…]NS (Flu-P19).
T1 sequence (peptide, 5-carboxyfluorescein on the N-terminus): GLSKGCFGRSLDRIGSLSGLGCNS
Put plainly: fluorescence polarisation; protein titration (0.12-500 nM NPR-C) at 15 nM Flu-P19 probe; HEPES buffer, 3% DMSO, 80 ul; both purified.

The target in experiment [2] is T2, Human full-length (FL) NPR-C (27–541)-10His-Flag (human) (UniProt P17342).
T2 sequence: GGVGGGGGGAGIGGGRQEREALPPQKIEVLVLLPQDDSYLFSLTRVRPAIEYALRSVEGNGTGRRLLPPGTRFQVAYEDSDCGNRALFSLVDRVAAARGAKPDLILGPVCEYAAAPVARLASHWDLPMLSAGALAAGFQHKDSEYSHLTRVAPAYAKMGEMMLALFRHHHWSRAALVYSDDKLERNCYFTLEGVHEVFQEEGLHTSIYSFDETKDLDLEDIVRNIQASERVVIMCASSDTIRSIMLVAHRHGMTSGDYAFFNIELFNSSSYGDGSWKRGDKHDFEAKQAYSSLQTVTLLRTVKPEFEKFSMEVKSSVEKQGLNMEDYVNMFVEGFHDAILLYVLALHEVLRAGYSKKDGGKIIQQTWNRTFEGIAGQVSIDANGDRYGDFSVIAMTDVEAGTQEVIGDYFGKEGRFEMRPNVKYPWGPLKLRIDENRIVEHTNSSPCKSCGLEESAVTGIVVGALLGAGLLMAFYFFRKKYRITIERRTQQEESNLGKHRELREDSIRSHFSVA
Put plainly: non-reducing SDS-PAGE; 10%-20% Tris-Glycine gel, protein loaded under reducing or non-reducing conditions; shows disulphide-bonded dimers only; both purified.

Experiment [3] concerns the target T3, extracellular domain (ECD) NPR-C (27–481)-6His (human) (UniProt P17342).
T3 sequence: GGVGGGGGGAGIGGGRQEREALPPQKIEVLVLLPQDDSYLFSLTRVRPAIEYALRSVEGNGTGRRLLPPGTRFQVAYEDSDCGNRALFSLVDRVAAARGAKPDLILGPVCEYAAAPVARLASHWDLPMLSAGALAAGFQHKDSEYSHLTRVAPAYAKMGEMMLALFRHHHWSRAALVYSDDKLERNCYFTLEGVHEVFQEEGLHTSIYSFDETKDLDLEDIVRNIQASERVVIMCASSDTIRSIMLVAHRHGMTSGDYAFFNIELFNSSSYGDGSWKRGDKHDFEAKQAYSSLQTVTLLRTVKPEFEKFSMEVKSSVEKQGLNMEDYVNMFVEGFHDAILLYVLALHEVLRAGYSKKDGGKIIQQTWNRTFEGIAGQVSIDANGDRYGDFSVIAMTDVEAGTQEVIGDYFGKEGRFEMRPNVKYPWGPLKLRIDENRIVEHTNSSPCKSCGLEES
Put plainly: fluorescence polarisation; competition against 15 nM Flu-P19 probe; FL NPR-C 150 nM or ECD NPR-C 400 nM; competitor 4.89 nM-2.5 uM; HEPES buffer, 3% DMSO; Ki computed from IC50 with a web-based converter; both purified.

Experiment [4] deals with T2, Human full-length (FL) NPR-C (27–541)-10His-Flag (human). The experiment is described as above.

These are yes or no findings as the source states them, for the method shown. Some binding calls cover weakened binding; strength is not graded here. Sequences can lack the tags named with a protein.

B1: Human full-length (FL) NPR-C (27–541)-10His-Flag (receptor, UniProt P17342-2 27-540)
chain: GGVGGGGGGAGIGGGRQEREALPPQKIEVLVLLPQDDSYLFSLTRVRPAIEYALRSVEGNGTGRRLLPPGTRFQVAYEDSDCGNRALFSLVDRVAAARGAKPDLILGPVCEYAAAPVARLASHWDLPMLSAGALAAGFQHKDSEYSHLTRVAPAYAKMGEMMLALFRHHHWSRAALVYSDDKLERNCYFTLEGVHEVFQEEGLHTSIYSFDETKDLDLEDIVRNIQASERVVIMCASSDTIRSIMLVAHRHGMTSGDYAFFNIELFNSSSYGDGSWKRGDKHDFEAKQAYSSLQTVTLLRTVKPEFEKFSMEVKSSVEKQGLNMEDYVNMFVEGFHDAILLYVLALHEVLRAGYSKKDGGKIIQQTWNRTFEGIAGQVSIDANGDRYGDFSVIAMTDVEAGTQEVIGDYFGKEGRFEMRPNVKYPWGPLKLRIDENRIVEHTNSSPCKSCGLEESAVTGIVVGALLGAGLLMAFYFFRKKYRITIERRTQQEESNLGKHRELREDSIRSHFSVA
As for B1, the binding entry in experiment [1] and in experiment [2] was “binds” each time.

B2: 5-carboxyfluorescein N-terminus labelled GLSKG[…]NS (Flu-P19) (peptide)
peptide: GLSKGCFGRSLDRIGSLSGLGCNS
modifications: 5-carboxyfluorescein on the N-terminus
Consider B2, for which the binding result in experiment [3] and in experiment [4] was “binds” in each case.

The values are drawn from PMC6879014, “Biophysical screening methods for extracellular domain peptide receptors, application to natriuretic peptide receptor C ligands” (Chemical Biology & Drug Design, 2018).
